Assay results reported in US6716597B2, “Methods and products for regulating cell motility” (priority 2000, dated 2004).
Like-named read-outs stand apart in the source and are kept apart here.

System: Mena

B1: EGFP-Mena: EGFP fused to full-length Mena (amino acids 1-541 of SEQ ID NO: 2), expressed from retroviral vector pMSCV (protein)
chain: MSEQSICQARAAVMVYDDANKKWVPAGGSTGFSRVHIYHHTGNNTFRVVGRKIQDHQVVINCAIPKGLKYNQATQTFHQWRDARQVYGLNFGSKEDANVFASAMMHALEVLNSQEAAQSKVTATQDSTNLRCIFCGPTLPRQNSQLPAQVQNGPSQEELEIQRRQLQEQQRQKELERERMERERLERERLERERLERERLEQEQLERQRQEREHVERLERERLERLERERQERERERLEQLEREQVEWERERRMSNAAPSSDSSLSSAPLPEYSSCQPPSAPPPSYAKVISAPVSDATPDYAVVTALPPTSTPPTPPLRHAATRFATSLGSAFHPVLPHYATVPRPLNKNSRPSSPVNTPSSQPPAAKSCAWPTSNFSPLPPSPPIMISSPPGKATGPRPVLPVCVSSPVPQMPPSPTAPNGSLDSVTYPVSPPPTSGPAAPPPPPPPPPPPPPPPLPPPPLPPLASLSHCGSQASPPPGTPLASTPSSKPSVLPSPSAGAPASAETPLNPELGDSSASEPGLQAASQPAESPTPQGLVLG
modifications: left off: large carriers
- total Mena relative to uninfected Rat2 controls (high GFP-sorted overexpressing population): 3.9 fold
- total Mena relative to uninfected Rat2 controls (low GFP-sorted overexpressing population): 1.9 fold
- total Mena relative to uninfected Rat2 controls (medium GFP-sorted overexpressing population): 2.7 fold
